# Earlier results, collected in PMC3998711 (Nature chemical biology, 2014).
# Molecular target: BRDT
# Settings: low affinity interaction; cited from earlier work
structure (smiles),measurement,value
CCc1cnn2c(NCc3ccc[n+]([O-])c3)cc(N3CCCC[C@H]3CCO)nc12 [dinaciclib],Kd,37 µM
